# Measurements: PubChem BioAssay AID743255 (National Center for Advancing Translational Sciences (NCATS), 2014)
# Amino acid sequences for entries named in this document (tags omitted). A change or cut given only in a name is not applied to a line headed by its entry.
# UniProt O94782: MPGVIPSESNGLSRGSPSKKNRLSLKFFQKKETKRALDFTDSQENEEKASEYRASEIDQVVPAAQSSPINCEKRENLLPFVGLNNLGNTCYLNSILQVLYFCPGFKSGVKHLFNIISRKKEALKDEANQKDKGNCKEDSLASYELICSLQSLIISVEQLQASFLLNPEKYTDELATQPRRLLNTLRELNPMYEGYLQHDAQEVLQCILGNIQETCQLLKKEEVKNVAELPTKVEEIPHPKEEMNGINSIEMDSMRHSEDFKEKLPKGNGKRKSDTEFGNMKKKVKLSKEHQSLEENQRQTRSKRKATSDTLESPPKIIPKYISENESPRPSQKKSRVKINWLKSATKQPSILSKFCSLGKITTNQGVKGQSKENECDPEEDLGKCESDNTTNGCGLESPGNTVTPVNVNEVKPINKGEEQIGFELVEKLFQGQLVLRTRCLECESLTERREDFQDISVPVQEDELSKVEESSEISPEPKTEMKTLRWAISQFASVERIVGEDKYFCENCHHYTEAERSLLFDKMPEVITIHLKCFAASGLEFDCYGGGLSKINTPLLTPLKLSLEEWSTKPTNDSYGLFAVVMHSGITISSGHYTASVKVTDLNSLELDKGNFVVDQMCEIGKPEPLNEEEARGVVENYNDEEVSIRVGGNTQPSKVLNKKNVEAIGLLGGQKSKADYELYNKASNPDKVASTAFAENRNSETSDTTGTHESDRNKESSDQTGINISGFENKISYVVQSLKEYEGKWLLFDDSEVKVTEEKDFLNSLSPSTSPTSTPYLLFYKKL
# The whole screen tested about 390,000 compounds, of which about 910 (0.23%) were called active. This list was built around the results that the source calls inconclusive (neither active nor inactive); the mix of calls is not that of the screen. Calls come from the whole dose curve; as a rule, active = well fitted inhibition curve with a large enough effect; inconclusive = small, poorly fitted or top-dose-only effect; inactive = no such curve, though single readings can be large or run the other way. Where the call is inconclusive, the potency comes from a doubtful curve fit.
# Biological target: Ubiquitin carboxyl-terminal hydrolase 1 (Homo sapiens) (UniProt O94782)
# Experiment: Inhibitors of USP1/UAF1: Primary Screen; note: nearly all actives have a fitted effect of over 60% in size
# Conditions: recombinant USP1/UAF1, Ub-Rhodamine cleavage fluorescence; series mostly up to 57.1 µM
# How it was run: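 Step one: compound is pinned into 1nM USP1/UAF1 in HEPES pH 7.8 buffer with TCEP. Step two: 15 min room-temperature incubation. Step three: Ub-Rho (150nM final) starts cleavage, tracked by fluorescence over six one-minute reads.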
# Potency is the fitted concentration of half-maximal effect.
row,Structure (SMILES),Potency
1,O=CN1CCN(C(C(=O)NC2CCCCC2)c2cc3c(cc2[N+](=O)[O-])OCO3)CC1 (configuration not stated),"inconclusive: 0.282 µM [inhibitor, full curve]"
2,CCOC(=O)C1CCCN(C(=O)Cn2ncc3c4ccccc4n(Cc4ccccc4)c3c2=O)C1 (configuration not stated),"inconclusive: 3.98 µM [inhibitor, single point]"
3,O=C(OCC1CCCO1)c1ccc2c(c1)N(Cc1ccccc1)C(=O)c1ccccc1S2(=O)=O (configuration not stated),"inconclusive: 14.1 µM [inhibitor, partial curve, poor fit]"
4,Cc1ccc(C)c(N2CCN(S(=O)(=O)c3c(C)[nH]c(C)c3C(=O)N3CCCCC3)CC2)c1,"inconclusive: 50.1 µM [inhibitor, partial curve, poor fit]"
5,O=C1NN(c2ccccc2)C(=O)/C1=C/c1ccc(Sc2cccc3ccccc23)o1,"inconclusive: 44.7 µM [inhibitor, partial curve, poor fit]"
6,Cn1cc(/C=C/c2cc[n+](C)cc2)c2cc(F)ccc21,active: 28.2 µM
7,Cc1cc(C)c(S(C)(=O)=O)c(Oc2ccc(F)cc2)n1,inactive
8,O=c1ccc2c(-c3ccccc3)c3ccc(O)cc3oc-2c1,active: 3.55 µM
9,COc1ccc(CCNc2ncnc3c2[nH]c2cc(OC)c(OC)cc23)cc1OC,"inconclusive: 4.47 µM [inhibitor, single point]"
10,COc1ccc(C2CC(c3ccco3)n3ncnc3N2)cc1 (configuration not stated),inactive
11,CCOc1cc(C)ccc1OCc1nnc(SCC(=O)c2cccc([N+](=O)[O-])c2)n1C,inactive
12,Cc1ccc(-n2ncc3c(N4CCC(Cc5ccccc5)CC4)ncnc32)cc1C,"inconclusive: 2.24 µM [inhibitor, full curve]"
13,O=S(=O)(/N=S1/CC=CCN1S(=O)(=O)c1ccccc1)c1ccccc1 (configuration not stated),inactive
14,CCCn1cc(S(=O)(=O)c2ccc(Cl)cc2)c(=O)c2cc(OC)ccc21,"inconclusive: 10 µM [inhibitor, partial curve]"
15,O=C(O)C1CCC(C(=O)O)SS1 (configuration not stated),"inconclusive: 28.2 µM [inhibitor, single point]"
16,Cc1ccc2c(c1)c1c(n2CC(O)Cn2nc(C)c(Br)c2C)C(=O)CCC1 (configuration not stated),inactive
17,CCOc1cc(/C=C2\SC(=S)N(NS(=O)(=O)c3ccccc3)C2=O)ccc1O,"inconclusive: 39.8 µM [inhibitor, partial curve]"
18,COc1ccc(CCNC(=O)CCCn2nc(C)c3sc4ccccc4c3c2=O)c(OC)c1,"inconclusive: 0.224 µM [inhibitor, full curve, poor fit]"
19,CCOc1c2ccc(C(=O)NCc3ccccc3OC)cc2nn1CC,"inconclusive: 28.2 µM [inhibitor, single point]"
20,CCOc1ccc(NC(=O)Cn2c(=O)n(CCCS(=O)(=O)C3CCCCC3)c(=O)c3ccccc32)cc1,"inconclusive: 0.398 µM [inhibitor, full curve, poor fit]"
21,CCOC(=O)Cn1nnc(-c2ccc(SC)cc2)n1,inactive

row,Structure (SMILES),Potency
1,CC(C)[C@@H]1CC[C@@H](C)C[C@H]1OC(=O)C[n+]1cc(-c2ccc(Cl)cc2)n2c1CCCCC2,"inconclusive: 50.1 µM [inhibitor, partial curve, poor fit]"
2,CCn1c2ccccc2c2cc(NC(=O)c3ccc(=O)oc3)ccc21,"inconclusive: 31.6 µM [inhibitor, partial curve, poor fit]"
3,CN(CC(=O)Nc1cccc(F)c1)C(=O)c1cn2ccccc2n1,inactive
4,CC(=O)Nc1ccc(S(=O)(=O)NC(C(=O)O)C2=CCC=CC2)cc1 (configuration not stated),"inconclusive: 0.631 µM [inhibitor, full curve, poor fit]"
5,CC(NCCS(=O)(=O)c1ccc(Cl)cc1)c1cccc(Cl)c1 (configuration not stated),inactive
6,CC(OC(=O)/C(C#N)=C/c1ccc(N(C)C)cc1)C(=O)N(C)c1ccccc1 (configuration not stated),"inconclusive: 31.6 µM [inhibitor, partial curve, poor fit]"
7,COC(=O)c1cc(Cl)ccc1NC(=O)CSc1ncc(S(=O)(=O)c2ccc(Br)cc2)c(=O)[nH]1,"inconclusive: 44.7 µM [inhibitor, partial curve, poor fit]"
8,Cc1oc2c(c1C(=O)Nc1cccc3ccccc13)CCCC2,inactive
9,Cc1cc(C)c[n+](C2=C([O-])c3ccccc3C(=O)/C2=N\S(=O)(=O)c2cccs2)c1,"inconclusive: 3.16 µM [inhibitor, full curve, poor fit]"
10,COc1ccc(CN(C)CCCn2cnc3c(OC)ncnc32)cc1OC,"inconclusive: 0.355 µM [inhibitor, full curve, poor fit]"
11,CCOc1ccccc1Nc1sc(C(=O)c2ccccc2)c(N)c1S(=O)(=O)c1ccc(C)cc1,inactive
12,COc1cc(OC)c(C(=O)Nc2cc(S(=O)(=O)N3CCOCC3)ccc2N2CCOCC2)cc1OC,"inconclusive: 7.08 µM [inhibitor, partial curve, poor fit]"
13,CC(C)CNC(=S)N1CCN(c2nc(-c3ccc(Cl)cc3)cs2)CC1,inactive
14,O=C(NCc1ccccc1F)C(=O)NCC(c1ccco1)S(=O)(=O)c1cccs1 (configuration not stated),inactive
15,CCC(=O)N1CCc2cc(Br)cc(S(=O)(=O)CCC(=O)N3CCN(c4cc(C)ccc4C)CC3)c21,inactive
16,O=C(Nc1ccc2c(c1)C(=O)OC2)c1ccc(Cl)cc1Cl,"inconclusive: 7.08 µM [inhibitor, single point]"
17,COc1ccc2c(CNC3CCCCCC3)c(C(=O)O)n(Cc3ccccc3F)c2c1,inactive
18,CCN1C(=O)[C@H]2[C@@H](c3ccc(-c4ccc(Cl)c(Cl)c4)c(OC)c3)N[C@@](Cc3ccccc3)(C(=O)OC)[C@H]2C1=O,"inconclusive: 0.251 µM [inhibitor, full curve, poor fit]"
19,Cc1nc(NC(N)=S)sc1C(=O)Nc1ccccc1,inactive
20,O=C(Nc1ccc(C(=O)OCc2cc(=O)n3nc(C4CC4)sc3n2)cc1)c1cccc(F)c1,"inconclusive: 7.08 µM [inhibitor, single point]"
21,CCC(CO)N=CC1=C(O)CC(c2ccccc2)CC1=O (configuration not stated),"inconclusive: 39.8 µM [inhibitor, partial curve, poor fit]"

# Reformatted bar-delimited: 2 of the compounds above.
row | Structure (SMILES) | Potency
12 | COc1cc(OC)c(C(=O)Nc2cc(S(=O)(=O)N3CCOCC3)ccc2N2CCOCC2)cc1OC | inconclusive: 7.08 µM [inhibitor, partial curve, poor fit]
17 | COc1ccc2c(CNC3CCCCCC3)c(C(=O)O)n(Cc3ccccc3F)c2c1 | inactive
